# Percent effect of library compounds

Source: ChEMBL document CHEMBL3988442, “University of Dundee, Small-Polar-MMV Screening Library” (2021).

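Assay of Toxoplasma gondii numbers, read through their beta-galactosidase reporter with a colour substrate. Compounds at 10 µM. The record gives no direction; the compounds picked for IC50 retests had high values, so higher reads as fewer parasites. About 67,000 compounds were tested under these conditions; 0.38% (about 260) showed 50% or more at least once.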

Results are given as percent effect.
How 0% and 100% were set is not recorded. Most values in the screen are low, and negative values occur.
This is an unselected part of the compounds tested.

structure	effect
O=C(CCc1nccs1)N1CCC(N2CCNC2=O)CC1	5.911
[H][C@@]12C[C@@H](OCC3CC3)CN1CCN(C(=O)c1cnccn1)C2	-6.932
Cc1cc(CN(C)C(=O)NC2CCC(O)CC2)no1 (stereo not shown)	0.8107
[H][C@@]12OCCC[C@]1([H])N(C(=O)c1ccsc1)C[C@@H]2N1CCOCC1	7.027
NC(=O)C1CCN(C(=O)c2ccn(-c3cccc(Cl)c3)n2)C1 (stereo not shown)	15.16
c1ncc(Nc2nccc(C3CCCCN3CC3CCCCC3)n2)cn1 (stereo not shown)	-1.83
CCN1CC(C(=O)NCCn2cccc2)CC1=O (stereo not shown)	13.39
CC(C)CN(C)S(=O)(=O)c1ccc(Cl)cc1C#N	1.273
COc1cccc(CC(=O)N2CCCSCC2CN2CCCC2)c1 (stereo not shown)	1.802
O=C(NC1CCN(c2ccccc2Br)C1)c1c[nH]nn1 (stereo not shown)	14.99
Cl.Cl.O=C([C@@H]1CSCN1)N1CCC2(CC1)CNCc1ccccc12	0.4854
[H][C@@]12CC[C@H](Oc3ccccc3)[C@]1([H])CN(C(=O)COCC)C2	-13.55
Cc1ccc(C(=O)N2CCN(Cc3cccs3)CC2)c(=O)[nH]1	8.138
CCN(CC(=O)NC)C(=O)c1cc(-c2cccc(Cl)c2)no1	-0.177
Cc1nccn1C1CCCN(C(=O)c2cnc[nH]2)C1 (stereo not shown)	5.49
Cc1ccc(CN2CCC(Cc3nnc(CO)n3C)CC2)cc1C	5.6
O=C(C1SCCc2sccc21)N1CCC(O)CC1 (stereo not shown)	-8.403
CN(CC1CN(CCn2cc(C#N)cn2)CCO1)c1cccnn1 (stereo not shown)	11.85
CN(Cc1ccncn1)C(=O)c1cccc(CCC(C)(C)O)c1	5.24
Cc1cnn(CC(C)NCc2ccc(OCC(N)=O)cc2)c1 (stereo not shown)	-17.17
CCCc1nnc(NC(=O)NC2CCOc3ccccc32)s1 (stereo not shown)	24.45
c1cnnc(N2CCCC(NCc3nc(C4CC4)no3)C2)c1 (stereo not shown)	0.643
Cc1nc(C2CCCN(C(=O)c3c(C)nn4cccnc34)C2)no1 (stereo not shown)	20.68
CCc1ccc(S(=O)(=O)N2CC[C@@](O)(CCOC)[C@H](C)C2)cc1	19.53
Cc1c(C(=O)O)nnn1Cc1cccc(C(F)(F)F)c1	-0.6378
NC(=O)c1ccc(C2CCCN2C(=O)CCn2nnc3ccccc32)s1 (stereo not shown)	5.325
COCc1ccc(C(=O)N2CCC(Oc3ccccc3)(C(=O)O)CC2)o1	0.5821
Cn1ccc(C(=O)N2CCOC3(COCCN(CC4CC4)C3)C2)n1.O=C(O)C(F)(F)F (stereo not shown)	-4.013
O=C(O)C(F)(F)F.[H][C@@]12COC[C@]1(CNC(=O)COC)CN(c1ncc(F)cn1)C2	-9.296
CNC(=O)COC(=O)c1ccoc1CN1c2ccccc2CC1C (stereo not shown)	13.01
Cc1n[nH]c(C2CN(CCCOc3cccc(Cl)c3)CCO2)n1 (stereo not shown)	8.571
O=C(NCCCn1ccnc1)C1COCC(=O)N1Cc1ccccc1 (stereo not shown)	0.05565
CCC(NS(C)(=O)=O)c1ccccc1C (stereo not shown)	5.061
O=C(CC1C=CCC1)N1CCc2ncnc(NCc3ccon3)c2CC1 (stereo not shown)	30.53
Cc1ccc(F)c(C(=O)N2C[C@@H](C(=O)O)[C@H](c3ccccc3)C2)c1Cl	-2.99
Cc1ccccc1NC(=O)Nc1cc(N2CCCC2)ncn1	-14.41
O=C(Nc1ccc(-c2nc3c([nH]2)CCNC3)cc1)N1CCCC1	-2.912
COCC1CN(c2ncc(F)cn2)Cc2cnn(C)c21.O=C(O)C(F)(F)F.O=C(O)C(F)(F)F (stereo not shown)	-10.84
Cc1cnn(CC(=O)N2CCC3(CCC(=O)N(CCCO)C3)CC2)c1	2.363
Cc1cc(C)c2ncc(C#N)c(N3CCS(=O)(=O)CC3)c2c1	5.455
COc1ccc(OCCNCc2c(C)nn(C)c2N(C)C)cc1.Cl	17.37
CCOCCn1nc(C)cc1C(=O)N1CC[C@](C)(O)C(C)(C)C1	9.002
[H][C@@]12CCN(S(=O)(=O)CC)C[C@]1(C(=O)NC)CCO2	-1.568
CNc1nccc(-c2cn(C)nc2C)n1	-0.8246
N#Cc1ccc(NCCCOCC2CCOC2)c(F)c1 (stereo not shown)	2.185
CN(C)C(=O)c1cnc2n1CCN(Cc1ccsc1)C2.O=C(O)C(F)(F)F	7.423
Cc1ccc(C2(CN3CCN(c4ncccn4)CC3)CCNCC2)nc1	-12.52
Cc1ccc(CN(Cc2ccccn2)C(=O)C2CCCCCN2C)s1 (stereo not shown)	6.408
Cc1cc(N)nc(C2(C)CCCN2C(=O)c2cnccn2)n1 (stereo not shown)	5.679
CCOc1cc(CN(C)CCC#N)ccc1OC(F)F	-12.76
CCSc1cc(C(=O)NCCNC(=O)N(C)C)ccn1	1.7